Nine targets from the supplement of paper PMC10849652 can be followed below.

Protein sequences, listed by entry. Tags and fused reporters are not part of them. Lines headed by an entry give the natural chain unless they say otherwise; changes in a name come on top.
UniProt Q17RN3: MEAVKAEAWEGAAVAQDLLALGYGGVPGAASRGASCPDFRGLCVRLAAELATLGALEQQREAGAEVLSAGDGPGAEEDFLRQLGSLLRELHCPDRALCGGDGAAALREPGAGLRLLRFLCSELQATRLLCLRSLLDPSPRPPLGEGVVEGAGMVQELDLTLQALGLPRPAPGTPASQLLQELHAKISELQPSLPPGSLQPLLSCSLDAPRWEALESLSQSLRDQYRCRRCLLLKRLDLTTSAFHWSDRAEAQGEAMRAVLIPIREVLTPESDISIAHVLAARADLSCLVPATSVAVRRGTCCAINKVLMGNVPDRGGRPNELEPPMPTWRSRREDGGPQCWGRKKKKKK
UniProt Q9NWM8: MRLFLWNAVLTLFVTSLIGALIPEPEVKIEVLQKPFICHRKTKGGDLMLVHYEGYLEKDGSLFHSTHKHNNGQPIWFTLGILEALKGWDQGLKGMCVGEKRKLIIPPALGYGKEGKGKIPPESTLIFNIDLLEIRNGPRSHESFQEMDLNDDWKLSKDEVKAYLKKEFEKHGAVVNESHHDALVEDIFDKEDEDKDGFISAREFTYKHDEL
UniProt Q5XUX1: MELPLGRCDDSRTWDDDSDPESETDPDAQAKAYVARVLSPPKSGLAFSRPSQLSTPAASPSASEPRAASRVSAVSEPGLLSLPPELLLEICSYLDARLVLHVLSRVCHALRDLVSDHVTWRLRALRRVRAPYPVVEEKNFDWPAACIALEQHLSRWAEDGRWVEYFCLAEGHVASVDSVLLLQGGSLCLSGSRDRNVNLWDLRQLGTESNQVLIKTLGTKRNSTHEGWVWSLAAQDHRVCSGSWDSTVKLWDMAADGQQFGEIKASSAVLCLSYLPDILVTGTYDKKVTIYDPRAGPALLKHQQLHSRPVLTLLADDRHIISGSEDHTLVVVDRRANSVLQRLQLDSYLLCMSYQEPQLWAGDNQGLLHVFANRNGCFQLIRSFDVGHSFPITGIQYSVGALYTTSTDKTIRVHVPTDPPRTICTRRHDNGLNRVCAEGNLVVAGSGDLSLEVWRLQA
UniProt P14324: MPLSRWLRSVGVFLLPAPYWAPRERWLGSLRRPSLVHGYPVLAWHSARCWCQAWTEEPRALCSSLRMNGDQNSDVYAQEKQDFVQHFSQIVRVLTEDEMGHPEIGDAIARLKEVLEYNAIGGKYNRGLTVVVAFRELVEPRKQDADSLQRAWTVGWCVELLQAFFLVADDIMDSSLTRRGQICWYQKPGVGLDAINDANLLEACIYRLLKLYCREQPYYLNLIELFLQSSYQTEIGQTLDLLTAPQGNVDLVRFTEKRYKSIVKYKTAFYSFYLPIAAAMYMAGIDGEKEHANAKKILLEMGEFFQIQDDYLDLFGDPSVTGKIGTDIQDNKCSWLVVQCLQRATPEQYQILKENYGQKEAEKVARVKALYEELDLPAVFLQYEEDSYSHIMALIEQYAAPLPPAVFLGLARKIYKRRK
UniProt Q658Y4: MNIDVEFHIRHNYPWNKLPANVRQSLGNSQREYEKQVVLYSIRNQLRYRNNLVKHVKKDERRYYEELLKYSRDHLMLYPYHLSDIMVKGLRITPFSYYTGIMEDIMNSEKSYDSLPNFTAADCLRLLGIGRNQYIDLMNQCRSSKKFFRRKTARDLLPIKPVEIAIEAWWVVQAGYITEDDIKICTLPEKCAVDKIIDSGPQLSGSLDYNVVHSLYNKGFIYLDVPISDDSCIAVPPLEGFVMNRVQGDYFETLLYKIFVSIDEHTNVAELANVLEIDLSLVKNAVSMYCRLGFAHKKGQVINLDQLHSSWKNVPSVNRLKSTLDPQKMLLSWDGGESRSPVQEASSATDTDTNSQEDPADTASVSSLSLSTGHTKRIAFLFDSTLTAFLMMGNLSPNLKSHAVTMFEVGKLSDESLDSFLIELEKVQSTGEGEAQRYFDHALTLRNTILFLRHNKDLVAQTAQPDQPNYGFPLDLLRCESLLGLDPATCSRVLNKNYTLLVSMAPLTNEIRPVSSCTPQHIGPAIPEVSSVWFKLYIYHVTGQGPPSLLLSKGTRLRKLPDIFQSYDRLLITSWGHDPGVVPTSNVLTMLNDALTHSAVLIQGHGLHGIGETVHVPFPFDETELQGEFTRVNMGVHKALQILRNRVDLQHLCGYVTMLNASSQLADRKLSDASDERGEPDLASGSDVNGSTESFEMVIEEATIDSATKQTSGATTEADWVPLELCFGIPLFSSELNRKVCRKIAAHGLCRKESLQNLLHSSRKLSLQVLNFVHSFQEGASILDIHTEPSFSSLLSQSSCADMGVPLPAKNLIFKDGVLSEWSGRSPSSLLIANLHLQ
UniProt O95466, whole entry, looked up: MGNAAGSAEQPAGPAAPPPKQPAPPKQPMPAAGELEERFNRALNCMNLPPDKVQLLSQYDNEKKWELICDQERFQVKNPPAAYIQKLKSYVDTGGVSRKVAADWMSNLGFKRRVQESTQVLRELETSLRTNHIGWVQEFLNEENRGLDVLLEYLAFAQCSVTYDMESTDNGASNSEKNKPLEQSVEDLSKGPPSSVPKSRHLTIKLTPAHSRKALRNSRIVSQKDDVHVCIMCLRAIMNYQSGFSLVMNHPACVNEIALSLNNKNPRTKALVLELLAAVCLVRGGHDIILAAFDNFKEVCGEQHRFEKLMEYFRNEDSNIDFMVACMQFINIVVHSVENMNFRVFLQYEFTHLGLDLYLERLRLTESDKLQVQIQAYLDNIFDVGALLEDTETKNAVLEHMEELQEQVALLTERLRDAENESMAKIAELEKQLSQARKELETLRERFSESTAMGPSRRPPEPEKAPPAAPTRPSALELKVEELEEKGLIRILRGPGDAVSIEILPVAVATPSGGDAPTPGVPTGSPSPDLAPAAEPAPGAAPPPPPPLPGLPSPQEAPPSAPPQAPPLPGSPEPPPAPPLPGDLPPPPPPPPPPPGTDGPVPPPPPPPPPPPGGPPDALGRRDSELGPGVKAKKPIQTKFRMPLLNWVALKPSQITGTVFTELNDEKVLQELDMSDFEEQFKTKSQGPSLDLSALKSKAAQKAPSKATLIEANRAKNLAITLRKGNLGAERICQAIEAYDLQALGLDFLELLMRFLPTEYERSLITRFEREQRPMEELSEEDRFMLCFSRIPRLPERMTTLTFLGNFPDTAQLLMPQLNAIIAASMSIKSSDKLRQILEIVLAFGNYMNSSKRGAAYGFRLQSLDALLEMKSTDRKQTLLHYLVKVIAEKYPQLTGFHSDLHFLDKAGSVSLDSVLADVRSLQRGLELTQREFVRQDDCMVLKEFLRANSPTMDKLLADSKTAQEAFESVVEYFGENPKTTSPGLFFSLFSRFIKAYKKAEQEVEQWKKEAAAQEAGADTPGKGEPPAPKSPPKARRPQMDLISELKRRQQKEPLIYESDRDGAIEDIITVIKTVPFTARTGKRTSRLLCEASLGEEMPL
UniProt P16591: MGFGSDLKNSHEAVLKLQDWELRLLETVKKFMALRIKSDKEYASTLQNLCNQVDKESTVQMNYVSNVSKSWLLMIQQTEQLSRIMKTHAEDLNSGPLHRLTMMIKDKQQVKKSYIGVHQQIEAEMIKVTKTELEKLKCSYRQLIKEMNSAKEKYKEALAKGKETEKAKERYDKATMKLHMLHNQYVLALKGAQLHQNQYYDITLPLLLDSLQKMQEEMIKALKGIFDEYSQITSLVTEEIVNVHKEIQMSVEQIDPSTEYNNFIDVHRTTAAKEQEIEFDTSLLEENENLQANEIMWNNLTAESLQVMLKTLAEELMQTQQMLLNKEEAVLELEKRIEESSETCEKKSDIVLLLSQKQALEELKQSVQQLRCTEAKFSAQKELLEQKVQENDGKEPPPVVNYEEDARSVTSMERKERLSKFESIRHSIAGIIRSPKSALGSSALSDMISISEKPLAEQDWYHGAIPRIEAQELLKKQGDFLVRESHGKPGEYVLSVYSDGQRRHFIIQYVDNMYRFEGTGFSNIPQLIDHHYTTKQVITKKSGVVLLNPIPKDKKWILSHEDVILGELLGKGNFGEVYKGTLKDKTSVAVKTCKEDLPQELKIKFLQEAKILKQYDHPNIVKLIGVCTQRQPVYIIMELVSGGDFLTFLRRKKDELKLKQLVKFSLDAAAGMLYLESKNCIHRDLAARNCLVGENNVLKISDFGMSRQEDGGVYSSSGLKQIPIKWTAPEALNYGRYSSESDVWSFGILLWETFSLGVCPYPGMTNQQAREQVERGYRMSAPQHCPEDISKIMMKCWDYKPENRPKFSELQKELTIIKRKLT

The list shows a part of the results.

Holding throughout (assay): log2 fold change, soluble protein after heating vs DMSO (PISA); higher = thermal stabilisation; K562 lysate, 10 uM; active = over 0.2 and 3.5 SD of the protein, either way, in both replicates (recomputed)
Compound in test [1]: NCC(=O)Nc1ccc(-n2nc(C(F)(F)F)cc2-c2ccc3c(ccc4ccccc43)c2)cc1
The method in brief: (§1)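 Thermal stability, expressed as log-two fold change relative to solvent controls, is given from duplicates. Crude K562 extract in PBS pH 7.4 with 1 mM MgCl2, at 1 mg/mL protein, was treated with 10 μM compound for 30 min and heated in aliquots for 3 min across 48°C-58°C. After pooling, adjustment to 0.5% NP-40 at 4°C and centrifugation at 21,000xg for 90 min, supernatant protein was measured by TMTpro 16plex LC-MS/MS with channel sums equalised.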

Compound in test [2]: O=C(CCCCCCC(=O)Nc1ccccc1)NO [vorinostat]
The method in brief:
as §1

Compound in test [3]: O=C(O)c1ccc2c(c1)nc(Nc1cccc(Cl)c1)c1ccncc12 [silmitasertib]
A digest of the protocol:
as §1

Compound in test [4]: O=C1NC(=O)C(c2cnc3ccccn23)=C1c1cn2c3c(cc(F)cc13)CN(C(=O)N1CCCCC1)CC2
A digest of the protocol: as §1

Compound in test [5]: c1cn2cc(-c3ccc4cn[nH]c4c3)nc(Nc3ccc(N4CCOCC4)cc3)c2n1 [entospletinib]
A digest of the protocol:
as §1

As for FAM98C (UniProt Q17RN3), the log2 fold change is inactive: 0.033 in test [1]; inactive: -0.11 in test [2]; inactive: 0.235 in test [3]; inactive: -0.073 in test [4]; inactive: 0.081 in test [5].

With FKBP14 (UniProt Q9NWM8), the log2 fold change in test [1] is inactive: 0.047; in test [2], inactive: 0.086; in test [3] it was inactive: 0.009; in test [4], inactive: 0.056; in test [5] it was inactive: 0.021.

Consider FBXW9 (UniProt Q5XUX1), for which the log2 fold change was inactive: -0.031 in test [1]; inactive: -0.049 in test [2]; inactive: 0.047 in test [3]; inactive: -0.024 in test [4]; inactive: -0.021 in test [5].

Regarding FDPS (UniProt P14324), the log2 fold change in test [1] was inactive: 0.047; in test [2] it was inactive: -0.085; in test [3], inactive: 0.035; in test [4] it was inactive: -0.023; in test [5], inactive: 0.037.

Consider FAM91A1 (UniProt Q658Y4), for which the log2 fold change in test [1] was inactive: -0.029; in test [2], inactive: -0.007; in test [3] it was inactive: 0.008; in test [4], inactive: 0.034; in test [5], inactive: 0.019.

As for FARP2 (UniProt H7C3M7), the log2 fold change was inactive: -0.079 in test [1]; inactive: 0.062 in test [2]; inactive: -0.188 in test [3]; inactive: 0.032 in test [4]; inactive: -0.013 in test [5].

Consider FMNL1 isoform 3 (UniProt O95466), for which the log2 fold change is inactive: 0.051 in test [1]; active: -0.292 in test [2]; inactive: -0.01 in test [3]; inactive: 0.071 in test [4]; inactive: -0.066 in test [5].

As to FBRS (UniProt J3KNZ9), the log2 fold change was inactive: -0.066 in test [1]; inactive: -0.056 in test [2]; inactive: 0.051 in test [3]; inactive: 0 in test [4]; inactive: -0.102 in test [5].

FER (UniProt P16591): the log2 fold change in test [1] is inactive: -0.042; in test [2], inactive: 0.128; in test [3] it was inactive: -0.213; in test [4], inactive: -0.098; in test [5], inactive: 0.2.
